PubChem BioAssay AID602196 – INSERM, 2012
Shown is an unselected part of about 23,000 deposited reagents. Of all reagents, 455 (2%) are marked active. 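Active includes both protection and sensitisation; some change values fall well beyond the stated -50 to +50 range.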 Unmarked entries are inactive. Reagents against one gene are numbered here. No sequences are given here. The record does not give: the amount of reagent.

Test: 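Modifiers of cisplatin sensitivity in A549 cells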
Cells: human A549 lung cancer cells
Reagent: siRNA pair against human genes
Time to read-out: 48 h transfection before cisplatin; time from cisplatin to read-out not stated
Treatment: cisplatin at a dose killing half of control-siRNA cells; exact dose and duration not given
Measurement: 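Cisplatin cell death as a shift from the 50% death seen with control siRNA; siRNAs toxic or growth-blocking alone scored 0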
Direction: two-siRNA summed score (-2 to +2): higher = both siRNAs protect from cisplatin killing; -2 means both sensitise; mean protection from cisplatin (shift in death) and protection from cisplatin (shift in death), siRNA C and protection from cisplatin (shift in death), siRNA D: higher = protection from cisplatin killing
Rule for the call: 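siRNAs harmful alone (LDH or WST-1) get 0; others get +1 for less and -1 for more cisplatin killing; genes are active when the two siRNAs give the same sign, summing to ±2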
Meaning of the calls: active = both siRNAs shift cisplatin killing the same way; inactive = no consistent shift, or siRNA harmful alone

target gene | reagent no. | two-siRNA summed score (-2 to +2) | mean protection from cisplatin (shift in death) (%) | protection from cisplatin (shift in death), siRNA C (%) | protection from cisplatin (shift in death), siRNA D (%)
SLC26A6 | 1 | 0 | 6.1 | 1.8 | 10.3
HEYL | 1 | -1 | -12 | -1.9 | -22.1
TRIM27 | 1 | 0 | -0.9 | 10 | -11.7
NBPF5P | 1 | 0 | 15.3 | 21.6 | 9.1
GSKIP | 1 | 0 | 6.2 | 2.8 | 9.7
CDH26 | 1 | 0 | -0.7 | -4.1 | 2.6
SMPD1 | 1 | 0 | 1.4 | -4.2 | 7.1
BRD10 | 1 | -1 | -7.2 | 8.7 | -23.1
PDX1 | 1 | 0 | 3.4 | 6.1 | 0.8
NAIF1 | 1 | 1 | 9.4 | 9.6 | 9.1
HYPK | 1 | 0 | -1.1 | 3.2 | -5.4
NCAPG | 1 | 0 | 4.3 | 3.7 | 4.9
PMM2 | 1 | -1 | -26.8 | -49.8 | -3.7
OR11L1 | 1 | 1 | 6.3 | 14.7 | -2.1
OR4K13 | 1 | 1 | 23.5 | 9.1 | 37.9
CHRM5 | 1 | 0 | 7.2 | 7.6 | 6.8
NLGN2 | 1 | 0 | -0.2 | 16.8 | -17.2
BCAS4 | 1 | 0 | -0.8 | -11.6 | 10
TCEANC2 | 1 | 0 | 11.5 | 10.1 | 12.8
C5orf34 | 1 | 0 | 6.7 | -0.4 | 13.9
METTL22 | 1 | 0 | 13.1 | 1.3 | 24.8
LRRC74BNL | 1 | 0 | -0.4 | -4 | 3.2
NFIX | 1 | 0 | 4.2 | 14.5 | -6.2
TAMALIN | 1 | 0 | 11 | 9.1 | 12.9
DNAJC25-GNG10 | 1 | -1 | -10.2 | 1.3 | -21.7
SLC7A10 | 1 | 0 | 0 | -4.3 | 4.4
ZNRF2 | 1 | 0 | 4.4 | 2.7 | 6
MAP1S | 1 | 0 | 0.2 | -4.7 | 5.1
CERS6 | 1 | -1 | -11.1 | 6.4 | -28.6
OR1L1 | 1 | 1 | 8.6 | 25.7 | -8.6
MYZAP | 1 | 0 | 5.9 | 8.6 | 3.2
SNX14 | 1 | 0 | 9.3 | 10.3 | 8.2
PRG2 | 1 | -1 | 0.2 | 21.5 | -21.2
JUP | 1 | 0 | 14.9 | 22.7 | 7.1
NIPSNAP3B | 1 | 0 | -5.4 | 11.3 | -22
LOC441463 | 1 | 0 | 6.5 | 7.6 | 5.5
RASGRP2 | 1 | 0 | 10.5 | 26.7 | -5.6
TXNDC8 | 1 | 0 | -0.6 | 1.3 | -2.5
TRIM43 | 1 | 0 | -5.9 | -6.3 | -5.6
OBP2B | 1 | 0 | -5.6 | 1.2 | -12.4
ARHGEF11 | 1 | 0 | 2 | 6.4 | -2.4
MECP2 | 1 | 0 | 3 | 5 | 0.9
SHISA4 | 1 | 0 | 9.8 | 18.1 | 1.4
TSC22D2 | 1 | 0 | 2.3 | 4.6 | 0
DNAJA2 | 1 | 1 | 9.1 | 8.5 | 9.7
ZNF433 | 1 | 0 | -4.4 | -11.9 | 3.2
PTF1A | 1 | 0 | -9.3 | -8.2 | -10.5
COX7A1 | 1 | 1 | 8.9 | 6.8 | 10.9
LOC203547 | 1 | 0 | -1.2 | 3.6 | -6.1
LOC440911 | 1 | 0 | 11.3 | 8.3 | 14.3
CCDC28A | 1 | 0 | -9.3 | -8.4 | -10.2
GSTM5 | 1 | 0 | 5.9 | 11.1 | 0.7
ZFP42 | 1 | 0 | 5.5 | 7.1 | 3.8
PAK1 | 1 | 0 | 2.7 | -1.3 | 6.7
KIF16B | 1 | 0 | -4.8 | -11.6 | 2
KIF16B | 2 | 0 | 5.9 | -5.4 | 17.3
LOC121456 | 1 | 0 | -3.1 | 0.5 | -6.7
DSG1 | 1 | 0 | 5.6 | 2.6 | 8.5
GSTO2 | 1 | -1 | -2.6 | 11 | -16.1
RPL13A | 1 | 0 | 1.4 | 7.2 | -4.4
LOC440387 | 1 | 1 | 12.5 | 23 | 2.1
ARL5A | 1 | 1 | 19.2 | 24.5 | 13.9
LILRA1 | 1 | -1 | -13.6 | -8.4 | -18.9
KIAA1191 | 1 | 0 | 6.4 | 4.5 | 8.3
OACYLP | 1 | 0 | 12.9 | 14.6 | 11.2
IFITM2 | 1 | 0 | 18.5 | 5.9 | 31.1
PKM | 1 | 0 | 1.8 | -3.6 | 7.2
ZFP36 | 1 | 1 | 12.9 | 10.3 | 15.5
ICA1 | 1 | 0 | 2.2 | 5.5 | -1
FKBP14 | 1 | -1 | -19.6 | -17.8 | -21.4
PIAS3 | 1 | -1 | -5.4 | -13.1 | 2.3
BAZ1A | 1 | -1 | -18.6 | -3.1 | -34
LOC441570 | 1 | 1 | 8.2 | 3 | 13.3

Part of the list above, limited to “protection from cisplatin (shift in death), siRNA C (%)”:
RPL13A	7.2
LOC440387	23
ARL5A	24.5
LILRA1	-8.4
KIAA1191	4.5
OACYLP	14.6
IFITM2	5.9
PKM	-3.6
ZFP36	10.3
ICA1	5.5
FKBP14	-17.8
